PMC12797455
No constants are given. Whether binding was seen depends on the method and setting. Binding seen in cells or lysates may run through a third protein. Some binding calls cover weakened binding; strength is not graded here.

Chains of the proteins cited; added tags and fusions are not shown.
UniProt Q14457: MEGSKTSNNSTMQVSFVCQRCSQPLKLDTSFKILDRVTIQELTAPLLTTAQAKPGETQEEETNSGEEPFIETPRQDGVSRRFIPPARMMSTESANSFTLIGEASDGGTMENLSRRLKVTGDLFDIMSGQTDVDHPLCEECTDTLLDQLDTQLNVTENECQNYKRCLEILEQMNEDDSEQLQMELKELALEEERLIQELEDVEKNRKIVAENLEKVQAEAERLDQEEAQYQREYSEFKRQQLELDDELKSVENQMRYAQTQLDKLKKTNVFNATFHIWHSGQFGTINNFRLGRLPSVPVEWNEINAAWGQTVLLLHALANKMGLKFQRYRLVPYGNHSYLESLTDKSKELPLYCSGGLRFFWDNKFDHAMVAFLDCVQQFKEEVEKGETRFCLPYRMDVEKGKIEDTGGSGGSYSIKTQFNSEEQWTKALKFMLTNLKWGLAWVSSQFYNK
UniProt P10415: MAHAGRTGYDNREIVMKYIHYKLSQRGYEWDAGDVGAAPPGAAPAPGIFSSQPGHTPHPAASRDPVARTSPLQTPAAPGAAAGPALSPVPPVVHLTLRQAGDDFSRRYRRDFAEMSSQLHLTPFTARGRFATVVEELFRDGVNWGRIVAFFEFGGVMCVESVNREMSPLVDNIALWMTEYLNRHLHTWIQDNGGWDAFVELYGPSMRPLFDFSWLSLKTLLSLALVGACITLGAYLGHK
UniProt P49950: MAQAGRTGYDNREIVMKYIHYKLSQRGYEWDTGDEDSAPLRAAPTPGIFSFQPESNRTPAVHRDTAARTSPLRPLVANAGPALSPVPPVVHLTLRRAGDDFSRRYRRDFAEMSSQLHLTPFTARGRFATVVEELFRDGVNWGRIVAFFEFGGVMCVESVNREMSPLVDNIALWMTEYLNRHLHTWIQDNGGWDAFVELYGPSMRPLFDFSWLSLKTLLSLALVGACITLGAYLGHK
UniProt Q91XJ1: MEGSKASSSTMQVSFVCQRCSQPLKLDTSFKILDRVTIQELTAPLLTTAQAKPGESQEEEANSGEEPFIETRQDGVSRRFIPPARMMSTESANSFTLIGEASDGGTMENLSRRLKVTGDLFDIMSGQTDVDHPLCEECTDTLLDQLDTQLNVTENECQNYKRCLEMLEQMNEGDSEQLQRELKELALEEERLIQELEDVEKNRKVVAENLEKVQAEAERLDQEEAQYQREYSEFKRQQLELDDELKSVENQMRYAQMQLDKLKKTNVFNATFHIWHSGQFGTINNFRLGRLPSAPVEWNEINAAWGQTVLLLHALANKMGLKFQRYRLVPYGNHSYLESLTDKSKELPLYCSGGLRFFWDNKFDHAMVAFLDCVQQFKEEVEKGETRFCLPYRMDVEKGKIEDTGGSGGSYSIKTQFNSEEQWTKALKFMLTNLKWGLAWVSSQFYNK

What was measured:
[1] = biological target: Beclin-1 (human (endogenous in C28/I2 and primary OA chondrocytes)) (UniProt Q14457); assay: co-IP; total protein of C28/I2 and OA chondrocytes; Pierce Crosslink Magnetic IP/Co-IP kit; IP: BCL-2, IB: Beclin-1 and IP: Beclin-1, IB: BCL-2; cells untreated or treated with PEP, rapamycin, starvation, or BCL2 plasmid after PEP; n = 3
[2] = biological target: B-cell lymphoma 2 (BCL2) (human (endogenous in C28/I2 and primary OA chondrocytes)) (UniProt P10415); assay: as above
[3] = biological target: BCL2 overexpressed from a BCL2 plasmid (UniProt P10415); assay: as above
[4] = biological target: BCL2 (rat) (rat (endogenous in joint tissue)) (UniProt P49950); assay: co-IP; rat joint tissue of control, HA and HA@PEP groups (prevention and treatment); the text calls it Western blot of BCL2-Beclin1 complex levels

With “B-cell lymphoma 2 (BCL2) (from UniProt P10415 1-239)” the binding [1] was “binds”.

Beclin-1 (from UniProt Q14457 1-450) was tested, and the binding [2] was “binds” and the binding [3] was “binds”.

For “Beclin-1 (rat) (from UniProt Q91XJ1 1-448)”, the binding [4] was “binds”.
